Consider two molecules from article PMC9019020, “Low complexity RGG-motif sequence is required for Processing body (P-body) disassembly” (Nature Communications, 2022).

The target of one assay is T1, His-Edc3-mCherry (S. cerevisiae, UniProt P39998 1-551).
T1 construct: Edc3, P-body protein of S. cerevisiae with Lsm, FDF and YjeF-N domains; full length; also called full-length Edc3; purified Edc3; source: E. coli BL21, purified (Ni-NTA agarose, batch; RNase A added during purification); not shown: His, N-terminal, kept; mCherry, C-terminal, kept
T1 sequence (looked up): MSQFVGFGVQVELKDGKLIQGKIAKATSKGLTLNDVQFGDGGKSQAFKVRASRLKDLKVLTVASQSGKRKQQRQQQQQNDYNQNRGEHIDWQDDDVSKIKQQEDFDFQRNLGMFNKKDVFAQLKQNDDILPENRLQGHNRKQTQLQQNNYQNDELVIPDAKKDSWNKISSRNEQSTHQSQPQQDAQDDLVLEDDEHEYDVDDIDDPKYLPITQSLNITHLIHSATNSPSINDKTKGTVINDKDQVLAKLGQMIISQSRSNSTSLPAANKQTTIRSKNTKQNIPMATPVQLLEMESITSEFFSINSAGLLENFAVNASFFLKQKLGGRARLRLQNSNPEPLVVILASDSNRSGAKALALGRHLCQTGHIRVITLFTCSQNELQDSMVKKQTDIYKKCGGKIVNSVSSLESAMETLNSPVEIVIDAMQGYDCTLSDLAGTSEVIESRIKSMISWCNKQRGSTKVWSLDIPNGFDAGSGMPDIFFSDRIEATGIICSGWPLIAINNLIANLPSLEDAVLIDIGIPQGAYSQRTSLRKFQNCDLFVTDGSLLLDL
In words: condition: 100 pmol of each of the purified proteins; pull-down; RFP magnetic agarose beads (Chromotek) capture Edc3-mCherry; 100 pmol of each purified protein; 4 °C, 2 h; 50 mM HEPES pH 7, 100 mM NaCl, 1 mM DTT, 2 mM MnCl2, 2 mM MgCl2, 1% Triton-X100, 10% glycerol, 0.25 mg/mL RNase A; western blot; both purified. In general terms: In western blotting, separated proteins are transferred to a membrane and probed.

For assay [1], the target named is GST-tagged Edc3 FDF domain (S. cerevisiae). In words: condition: 200 pmol of each of the purified proteins; pull-down; GST-tagged Edc3 fragments immobilised on glutathione sepharose beads, purified Sbp1 added; 200 pmol of each protein; 4 °C, 2 h; 50 mM HEPES pH 7, 100 mM NaCl, 1 mM DTT, 2 mM MnCl2, 2 mM MgCl2, 1% Triton-X100, 10% glycerol, 0.25 mg/mL RNase A, 10 mg/mL BSA; western blot; both purified.

Results are given in words; binding and its absence hold for the method and conditions named. Tags and fused reporters may be left off the sequences shown.

As to His-Sbp1ΔRGG-FLAG (from UniProt P10080), the binding entry in the assay with His-Edc3-mCherry is on record as “no binding”.

B1: His-Sbp1-FLAG (natural protein, S. cerevisiae, UniProt P10080 1-294, looked up)
chain: MSAEIEEATNAVNNLSINDSEQQPRAPTHKTVIDPEDTIFIGNVAHECTEDDLKQLFVEEFGDEVSVEIPIKEHTDGHIPASKHALVKFPTKIDFDNIKENYDTKVVKDREIHIKRARTPGQMQRGGFRGRGGFRGRGGFRGGFRGGYRGGFRGRGNFRGRGGARGGFNGQKREKIPLDQMERSKDTLYINNVPFKATKEEVAEFFGTDADSISLPMRKMRDQHTGRIFTSDSANRGMAFVTFSGENVDIEAKAEEFKGKVFGDRELTVDVAVIRPENDEEEIEQETGSEEKQE
notes: Sbp1, RGG-motif containing translation repressor of S. cerevisiae; wild type; also called wild-type Sbp1; purified Sbp1; source: E. coli BL21, purified (Ni-NTA agarose, batch; RNase A added during purification); not shown: His, N-terminal, kept; FLAG, C-terminal, kept
Regarding B1, in assay [1], the binding entry is reported as “no binding”.
